Measurements: article PMC9368909
Results are given in words; binding and its absence hold for the method and conditions named. Some results given as binding are weak or reduced against the parent protein; the word gives no strength. For some of these results: Sequences can lack the tags named with a protein.

Chains of the proteins cited; added tags and fusions are not shown.
UniProt O14733: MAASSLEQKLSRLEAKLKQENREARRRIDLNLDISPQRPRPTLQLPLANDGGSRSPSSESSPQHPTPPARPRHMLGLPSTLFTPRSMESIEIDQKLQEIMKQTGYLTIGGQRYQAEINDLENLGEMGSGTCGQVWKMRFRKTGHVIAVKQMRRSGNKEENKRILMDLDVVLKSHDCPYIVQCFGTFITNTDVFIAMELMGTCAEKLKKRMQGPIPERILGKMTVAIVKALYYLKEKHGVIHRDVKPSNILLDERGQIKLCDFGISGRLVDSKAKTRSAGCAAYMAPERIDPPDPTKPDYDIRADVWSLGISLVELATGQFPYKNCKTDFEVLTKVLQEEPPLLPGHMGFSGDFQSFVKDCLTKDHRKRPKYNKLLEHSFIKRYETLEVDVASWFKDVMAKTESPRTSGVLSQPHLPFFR

T1: MBP fusion of T1A peptide (first 25 N-terminal residues of arrestin-3), P32120
T1 chain: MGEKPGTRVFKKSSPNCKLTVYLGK

B1: GST-MKK4 (enzyme, UniProt P45985 1-399)
chain: MAAPSPSGGGGSGGGSGSGTPGPVGSPAPGHPAVSSMQGKRKALKLNFANPPFKSTARFTLNPNPTGVQNPHIERLRTHSIESSGKLKISPEQHWDFTAEDLKDLGEIGRGAYGSVNKMVHKPSGQIMAVKRIRSTVDEKEQKQLLMDLDVVMRSSDCPYIVQFYGALFREGDCWICMELMSTSFDKFYKYVYSVLDDVIPEEILGKITLATVKALNHLKENLKIIHRDIKPSNILLDRSGNIKLCDFGISGQLVDSIAKTRDAGCRPYMAPERIDPSASRQGYDVRSDVWSLGITLYELATGRFPYPKWNSVFDQLTQVVKGDPPQLSNSEEREFSPSFINFVNLCLTKDESKRPKYKELLKHPFILMYEERAVEVACYVCKILDQMPATPSSPMYVD
B2: GST-MKK4, P45985 1-399 (enzyme)
chain: B1 chain

Columns and labels:
Assay in all cases: pull-down; MBP fusions (10 μg) immobilised on amylose resin, incubated with purified kinase (5 μg) for 2 h at 4 °C in 20 mM Tris-HCl pH 7.2, 150 mM NaCl; three washes; eluted with 50 mM maltose; Western blot with densitometry; both purified
[1] = target: MBP fusion of T1A peptide (first 25 N-terminal residues of arrestin-3) (UniProt P32120)
[2] = target: MBP fusion of full-length arrestin-3 (UniProt P32120)
[3] = target: T1, MBP fusion of T1A peptide (first 25 …); conditions: remark: other sources report otherwise

Molecule | binding [1] | binding [2] | binding [3]
GST-MKK7 (from UniProt O14733 1-419) (enzyme) | binds | binds | –
B1 | – | binds | –
B2 | – | – | no binding (tested: 5 μg GST-MKK4 on 10 μg MBP fusion)
